From paper PMC10314837
Results are given in words; binding and its absence hold for the method and conditions named. Binding seen in cells or lysates may run through a third protein. Some binding calls cover weakened binding; strength is not graded here.

Sequences of proteins named here, by UniProt entry; tags and fusion partners are left off.
UniProt P50748: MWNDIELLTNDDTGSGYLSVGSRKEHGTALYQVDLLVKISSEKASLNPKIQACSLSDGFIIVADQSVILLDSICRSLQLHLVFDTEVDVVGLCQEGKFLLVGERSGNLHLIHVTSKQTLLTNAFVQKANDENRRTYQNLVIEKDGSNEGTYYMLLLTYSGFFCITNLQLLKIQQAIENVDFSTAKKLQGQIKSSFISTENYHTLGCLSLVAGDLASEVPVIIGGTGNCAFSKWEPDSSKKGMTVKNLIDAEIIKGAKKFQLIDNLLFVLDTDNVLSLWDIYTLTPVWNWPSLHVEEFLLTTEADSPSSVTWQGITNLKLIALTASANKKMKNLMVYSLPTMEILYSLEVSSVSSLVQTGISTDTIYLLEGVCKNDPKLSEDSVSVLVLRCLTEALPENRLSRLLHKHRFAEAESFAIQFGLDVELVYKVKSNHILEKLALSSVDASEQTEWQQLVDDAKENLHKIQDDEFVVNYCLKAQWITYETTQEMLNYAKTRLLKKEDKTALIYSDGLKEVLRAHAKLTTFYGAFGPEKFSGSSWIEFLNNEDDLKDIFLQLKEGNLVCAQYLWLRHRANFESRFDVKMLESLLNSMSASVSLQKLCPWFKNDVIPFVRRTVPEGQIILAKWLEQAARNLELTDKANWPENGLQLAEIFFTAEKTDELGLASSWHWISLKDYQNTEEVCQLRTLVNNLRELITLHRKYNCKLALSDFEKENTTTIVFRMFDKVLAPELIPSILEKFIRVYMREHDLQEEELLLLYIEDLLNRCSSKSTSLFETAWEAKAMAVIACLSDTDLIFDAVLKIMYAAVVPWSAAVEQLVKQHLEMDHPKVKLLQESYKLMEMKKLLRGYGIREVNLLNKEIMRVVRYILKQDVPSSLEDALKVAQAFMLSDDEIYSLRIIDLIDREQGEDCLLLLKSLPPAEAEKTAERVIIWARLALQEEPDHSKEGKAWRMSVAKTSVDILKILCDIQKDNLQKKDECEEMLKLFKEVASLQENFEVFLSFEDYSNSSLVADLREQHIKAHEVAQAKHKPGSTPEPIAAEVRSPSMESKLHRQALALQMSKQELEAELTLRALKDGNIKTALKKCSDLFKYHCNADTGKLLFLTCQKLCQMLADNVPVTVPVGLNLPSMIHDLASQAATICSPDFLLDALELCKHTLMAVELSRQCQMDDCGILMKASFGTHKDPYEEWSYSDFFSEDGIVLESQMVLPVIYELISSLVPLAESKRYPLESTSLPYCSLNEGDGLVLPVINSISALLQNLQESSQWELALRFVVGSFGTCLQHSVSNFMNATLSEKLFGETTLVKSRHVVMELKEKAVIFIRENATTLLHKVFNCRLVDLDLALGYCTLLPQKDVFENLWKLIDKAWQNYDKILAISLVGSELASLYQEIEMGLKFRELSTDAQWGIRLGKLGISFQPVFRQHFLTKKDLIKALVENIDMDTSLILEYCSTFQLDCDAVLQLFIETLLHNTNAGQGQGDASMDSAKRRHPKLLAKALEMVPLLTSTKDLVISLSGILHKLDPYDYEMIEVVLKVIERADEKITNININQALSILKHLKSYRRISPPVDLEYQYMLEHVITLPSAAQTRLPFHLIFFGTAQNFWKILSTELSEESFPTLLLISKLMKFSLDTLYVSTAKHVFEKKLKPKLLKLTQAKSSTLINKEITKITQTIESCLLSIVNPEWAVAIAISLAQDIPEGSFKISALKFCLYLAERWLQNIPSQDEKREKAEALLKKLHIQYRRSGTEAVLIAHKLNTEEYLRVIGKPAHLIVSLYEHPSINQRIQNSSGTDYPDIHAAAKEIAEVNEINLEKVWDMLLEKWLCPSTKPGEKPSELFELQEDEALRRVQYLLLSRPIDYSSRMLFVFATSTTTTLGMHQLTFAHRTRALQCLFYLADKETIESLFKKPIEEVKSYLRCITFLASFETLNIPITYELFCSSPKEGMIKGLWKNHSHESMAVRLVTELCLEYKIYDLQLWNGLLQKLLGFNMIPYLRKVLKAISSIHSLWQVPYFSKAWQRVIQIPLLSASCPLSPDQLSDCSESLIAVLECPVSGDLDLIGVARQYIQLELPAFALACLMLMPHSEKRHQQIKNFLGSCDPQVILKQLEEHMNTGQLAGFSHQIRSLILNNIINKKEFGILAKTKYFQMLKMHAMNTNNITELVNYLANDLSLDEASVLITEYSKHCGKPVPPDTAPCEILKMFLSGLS

Target: Kinetochore-associated protein 1 (human (endogenous in pancreatic cancer samples)) (UniProt P50748)
Assay: co-IP; total protein extract in 50 mmol/L Tris-HCl pH 7.4, 150 mmol/L NaCl, 0.1% SDS, 1% NP, 0.5% sodium deoxycholate, protease inhibitor; specific primary antibody or normal control IgG overnight at 4 C, agarose beads, PBS washes, western blot

binding: binds
B1: cell division cycle associated 8 (protein, UniProt Q53HL2 1-280)
chain: MAPRKGSSRVAKTNSLRRRKLASFLKDFDREVEIRIKQIESDRQNLLKEVDNLYNIEILRLPKALREMNWLDYFALGGNKQALEEAATADLDITEINKLTAEAIQTPLKSAKTRKVIQVDEMIVEEEEEEENERKNLQTARVKRCPPSKKRTQSIQGKGKGKRSSRANTVTPAVGRLEVSMVKPTPGLTPRFDSRVFKTPGLRTPAAGERIYNISGNGSPLADSKEIFLTVPVGGGESLRLLASDLQRHSIAQLDPEALGNIKKLSNRLAQICSSIRTHK
